Our source for the survivor count and T/C values is PubChem BioAssay AID248 (DTP/NCI, 2004).

This assay has as its system L1210 leukemia ip in BDF1 mice, survival T/C. Kind of assay: NCI In Vivo Anticancer Drug Screen. Data for tumor model L1210 Leukemia (intraperitoneal) in B6D2F1 (BDF1) mice. The conditions noted are these: T/C endpoint: mean survival time, higher T/C = longer survival.
Where [1] appears, read: dose: 100.0 mg/kg/injection, schedule: Q04DX002 (ip), vehicle: saline with Tween-80.
[2] abbreviates: dose: 400.0 mg/kg/injection, schedule: Q04DX003 (ip), vehicle: saline with Tween-80.
Setting [3] is: dose: 80.0 mg/kg/injection, schedule: Q01DX001 (ip), vehicle: saline.
Setting [4] is: dose: 400.0 mg/kg/injection, schedule: Q01DX001 (ip), vehicle: saline.
Where [5] appears, read: dose: 400.0 mg/kg/injection, schedule: Q01DX009 (ip), vehicle: saline with Tween-80.
Where [6] appears, read: dose: 400.0 mg/kg/injection, schedule: Q04DX002 (ip), vehicle: saline.
Where [7] appears, read: dose: 400.0 mg/kg/injection, schedule: Q04DX003 (ip), vehicle: carboxymethylcellulose (CMC).
[8] abbreviates: dose: 500.0 mg/kg/injection, schedule: Q01DX001 (ip), vehicle: carboxymethylcellulose (CMC).
[9] abbreviates: dose: 400.0 mg/kg/injection, schedule: Q04DX003 (ip), vehicle: saline.

The list is a part of this screen's results and no random one: it is rich in T/C values a quarter to a half above the control, in often repeated tests (any T/C) and in doses without a T/C. Other doses and runs of a compound stand elsewhere. T/C is the treated group as % of the vehicle group. Some entries give survivors of the animals treated and no T/C: the source holds a T/C of zero for them, seemingly a mark for toxic or unscored doses. Some survivor counts are full or nearly so, which does not show that the dose was tolerated: the source hardly ever lists a survival T/C far under the control, and the zero likely stands for such cases as well. Counts of survivors are from the toxicity check (mostly the fifth day) where no day follows; animals may have died later. Schedule codes are those of the source, read here as Q, the interval in days (D) or hours (H), X, the number of doses. Where survival is the endpoint, this PubChem deposit counts one and a half times the control or more as active, and values a quarter to a half above the control carry no call in these data; other NCI protocols may use other cut-offs. Some T/C values carry the count of animals alive at the toxicity check (mostly the fifth day); without a count, all were alive then.

With `c1ccc(-c2csc3n4ccccc4c[n+]23)cc1`, the survivor count reads like this: under setting [1], 1 of 3; (dose: 200.0 mg/kg/injection, schedule: Q04DX002 (ip), vehicle: saline with Tween-80) 0 of 3; (dose: 400.0 mg/kg/injection, schedule: Q04DX002 (ip), vehicle: saline with Tween-80) 0 of 3.

For the compound `CCCCCCC(C(C(C)=O)C(C)=O)C(C(C)=O)C(C)=O`, the survivor count under setting [2] is given as 6 of 6.

As for `COc1ccc2nc3ccccc3c(N)c2c1`, under setting [3], the survivor count was 0 of 6.

As to `CCCCC(CC)C1NCCO1` (stereo not drawn), the survivor count under setting [2] is on record as 4 of 6.

For `CC1=CC2=C(C(=O)C1=O)C(C)CCC2C(C)C` (stereo not drawn), the survivor count under setting [4] is on record as 0 of 6.

Regarding `Clc1ccc([S][Pb]([c]2ccccc2)([c]2ccccc2)[c]2ccccc2)cc1`, the survivor count (dose: 400.0 mg/kg/injection, schedule: Q04DX002 (ip), vehicle: gum acacia) is 3 of 3.

Take `O=C1OC(/C=C/c2ccccc2)=NC/1=C\c1cc(Br)ccc1O`: the survivor count under setting [1] was 3 of 3.

For `CCC(=O)/C=C/C1C(C)=CCCC1(C)C` (stereo not drawn), the survivor count under setting [5] was 2 of 6.

With `CCCCCCCCCN1CCCC(OC(=O)N(C)C)C1` (stereo not drawn), the survivor count is, setting by setting: (dose: 200.0 mg/kg/injection, schedule: Q04DX002 (ip), vehicle: saline) 1 of 3; under setting [6], 0 of 3.

As for `CCOC(=O)NNC(=O)CN`, the survivor count is, setting by setting: (dose: 150.0 mg/kg/injection, schedule: Q01DX001 (ip), vehicle: saline) 3 of 6; (dose: 300.0 mg/kg/injection, schedule: Q01DX001 (ip), vehicle: saline) 0 of 6.

As to `C=CCN(CC=C)C(=O)Nc1ccc(C(=O)N/N=C/c2cccc(OC)c2OC)cc1`, the survivor count (dose: 400.0 mg/kg/injection, schedule: Q01DX009 (ip), vehicle: Klucel (hydroxypropylcellulose) (HPC)) is given as 3 of 3.

In the case of `c1ccc(CN2CCN(CC3CC3)CC2)cc1`, the survivor count (dose: 100.0 mg/kg/injection, schedule: Q04DX003 (ip), vehicle: carboxymethylcellulose (CMC)) is 2 of 6; the survivor count (dose: 200.0 mg/kg/injection, schedule: Q04DX003 (ip), vehicle: carboxymethylcellulose (CMC)) is 0 of 6; the survivor count under setting [7] was 0 of 6.

As to `CN(C)N=Nc1cn(C)c(=O)n(C)c1=O`, the T/C reads like this: (dose: 50.0 mg/kg/injection, schedule: Q04DX003 (ip), vehicle: water) 133 % of control [5 of 6 alive]; (dose: 100.0 mg/kg/injection, schedule: Q04DX003 (ip), vehicle: water) 133 % of control.

As to `CC(O)(C(=O)O)c1ccc(Cl)c(Cl)c1` (stereo not drawn), the survivor count is, setting by setting: (dose: 50.0 mg/kg/injection, schedule: Q01DX009 (ip), vehicle: saline with Tween-80) 3 of 3; (dose: 100.0 mg/kg/injection, schedule: Q01DX009 (ip), vehicle: saline with Tween-80) 3 of 3.

`CCOP(=O)(OC(C)CC)OC(C)CC` (stereo not drawn): the survivor count under setting [7] is on record as 4 of 6.

For the compound `N#CCCCSC(=N)N`, the survivor count under setting [4] is given as 0 of 6.

For `CCC1(O)CC(OC2CC(N(C)C)C(OC3CC(O)C(OC4CC(O)C(O)C(C)O4)C(C)O3)C(C)O2)c2c(cc3c(c2O)C(=O)c2c(O)ccc(O)c2C3=O)C1C(=O)OC` (stereo not drawn), the T/C is, setting by setting: (dose: 25.6 mg/kg/injection, schedule: Q01DX001 (ip), vehicle: saline) 131 % of control; (dose: 51.2 mg/kg/injection, schedule: Q01DX001 (ip), vehicle: saline) 141 % of control.

Turning to `CC1SC(=S)N(c2ccccc2)C1=O` (stereo not drawn), the survivor count under setting [5] is given as 3 of 6.

In the case of `O=NN(CCCl)C(=O)Nc1ccc(F)cc1`, under “dose: 4.7 mg/kg/injection, schedule: Q01DX001 (ip), vehicle: carboxymethylcellulose (CMC)”, the T/C is 137 % of control. Further, the survivor count is given as 6 of 6 (dose: 50.0 mg/kg/injection, schedule: Q01DX001 (ip), vehicle: carboxymethylcellulose (CMC)); 6 of 6 (dose: 100.0 mg/kg/injection, schedule: Q01DX001 (ip), vehicle: carboxymethylcellulose (CMC)); 0 of 6 (dose: 200.0 mg/kg/injection, schedule: Q01DX001 (ip), vehicle: carboxymethylcellulose (CMC)); 0 of 6 (dose: 300.0 mg/kg/injection, schedule: Q01DX001 (ip), vehicle: carboxymethylcellulose (CMC)); 0 of 6 (dose: 400.0 mg/kg/injection, schedule: Q01DX001 (ip), vehicle: carboxymethylcellulose (CMC)); 0 of 6 under setting [8].

In the case of `C[N+]1(CCC(c2ccccc2)c2ccccc2)CCCCC1`, the survivor count is listed as 4 of 6 (dose: 100.0 mg/kg/injection, schedule: Q04DX003 (ip), vehicle: saline); 1 of 6 (dose: 200.0 mg/kg/injection, schedule: Q04DX003 (ip), vehicle: saline); 0 of 6 under setting [9].

On to `NC(=O)C(O)C(O)C(O)C(O)C(N)=O` (stereo not drawn), for which the survivor count under setting [9] is 0 of 6.

Take `O=C1CC2C3Nc4ccccc4C3CCN2C2=C1CC(OC(=O)c1ccccc1)CC2` (stereo not drawn): the survivor count reads like this: (dose: 200.0 mg/kg/injection, schedule: Q04DX003 (ip), vehicle: Klucel (hydroxypropylcellulose) (HPC)) 6 of 6; (dose: 400.0 mg/kg/injection, schedule: Q04DX003 (ip), vehicle: Klucel (hydroxypropylcellulose) (HPC)) 5 of 6.

As for `COc1cc(C(=O)N2CCOC23CCN(Cc2ccccc2)CC3)cc(OC)c1OC`, the survivor count under setting [5] is on record as 0 of 6.

Take `CC/C(=C/c1cccc(OC)c1OC)[N+](=O)[O-]`: the survivor count under setting [2] was 5 of 6.

`Cc1ncc(CO)c(/C=N\OCc2cccc(Cl)c2)c1O`: the survivor count (dose: 50.0 mg/kg/injection, schedule: Q01DX009 (ip), vehicle: saline) is reported as 0 of 3.

Regarding `C=CCNC(=O)N(CC=C)N=O`, the survivor count reads like this: (dose: 250.0 mg/kg/injection, schedule: Q01DX001 (ip), vehicle: carboxymethylcellulose (CMC)) 1 of 6; (dose: 375.0 mg/kg/injection, schedule: Q01DX001 (ip), vehicle: carboxymethylcellulose (CMC)) 0 of 6; under setting [8], 0 of 6; (dose: 750.0 mg/kg/injection, schedule: Q01DX001 (ip), vehicle: carboxymethylcellulose (CMC)) 0 of 6.

In the case of `O=C1C=CC(=O)c2[nH]c(=O)ccc21`, the survivor count by setting is: (dose: 20.0 mg/kg/injection, schedule: Q01DX001 (ip), vehicle: saline) 0 of 4; (dose: 40.0 mg/kg/injection, schedule: Q01DX001 (ip), vehicle: saline) 0 of 4; under setting [3], 0 of 4; (dose: 100.0 mg/kg/injection, schedule: Q01DX001 (ip), vehicle: saline) 0 of 4; (dose: 200.0 mg/kg/injection, schedule: Q01DX001 (ip), vehicle: saline) 0 of 4; under setting [4], 0 of 4.

For the compound `O=C1c2ccccc2C(=O)c2c(O)c3c(c(O)c21)CC=CC3`, the survivor count (dose: 200.0 mg/kg/injection, schedule: Q04DX003 (ip), vehicle: saline with Tween-80) is recorded as 6 of 6; the survivor count (dose: 300.0 mg/kg/injection, schedule: Q04DX003 (ip), vehicle: saline with Tween-80) is recorded as 6 of 6; the survivor count under setting [2] is 6 of 6.

On to `C(=C\c1nc2ccccc2nc1/C=C/c1ccc2c(c1)OCO2)/c1ccc2c(c1)OCO2`, for which the survivor count by setting is: (dose: 100.0 mg/kg/injection, schedule: Q01DX009 (ip), vehicle: Klucel (hydroxypropylcellulose) (HPC)) 6 of 6; (dose: 200.0 mg/kg/injection, schedule: Q01DX009 (ip), vehicle: Klucel (hydroxypropylcellulose) (HPC)) 6 of 6.

`CC1C(=O)CC(=O)C1=O` (stereo not drawn): under setting [9], the survivor count is 2 of 6.

For `Cn1c(=O)c2c(ncn2CCOC(=O)C(C)(C)Oc2ccc(Cl)cc2)n(C)c1=O`, the survivor count (dose: 50.0 mg/kg/injection, schedule: Q01DX009 (ip), vehicle: Klucel (hydroxypropylcellulose) (HPC)) is listed as 1 of 3.

Regarding `CC(=O)C[N+]12CN3CN(CN(C3)C1)C2`, the survivor count is, setting by setting: (dose: 200.0 mg/kg/injection, schedule: Q01DX005 (ip), vehicle: saline) 1 of 3; under setting [6], 0 of 3.

For the compound `Nc1ccc2oc(=O)c(C(=O)O)cc2c1`, the survivor count (dose: 400.0 mg/kg/injection, schedule: Q01DX001 (ip), vehicle: Klucel (hydroxypropylcellulose) (HPC)) is reported as 0 of 3.
